Results: paper PMC12373997
These are yes or no findings as the source states them, for the method shown. Binding seen in cells or lysates may run through a third protein. A yes stands for co-enrichment or nearness to the bait. Other partners may have been found. For some of these results: Where a sequence is shown, tags or fusion partners need not be part of it.

Amino acid sequences for entries named in this document (tags omitted).
UniProt Q99871: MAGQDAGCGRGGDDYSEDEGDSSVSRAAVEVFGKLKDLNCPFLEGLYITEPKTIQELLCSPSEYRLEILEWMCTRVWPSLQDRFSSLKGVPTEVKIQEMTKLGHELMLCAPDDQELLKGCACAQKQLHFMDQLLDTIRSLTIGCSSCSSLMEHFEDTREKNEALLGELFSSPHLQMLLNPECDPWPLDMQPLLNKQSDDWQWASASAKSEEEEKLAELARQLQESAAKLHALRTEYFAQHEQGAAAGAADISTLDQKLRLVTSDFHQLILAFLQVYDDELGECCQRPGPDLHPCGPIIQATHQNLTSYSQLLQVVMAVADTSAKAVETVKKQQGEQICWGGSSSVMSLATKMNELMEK

T1: D. melanogaster Dgt4 (HAUS8 ortholog)-HIS8, N-clamp fragment (D. melanogaster) (UniProt Q9W4M8)
T1 sequence: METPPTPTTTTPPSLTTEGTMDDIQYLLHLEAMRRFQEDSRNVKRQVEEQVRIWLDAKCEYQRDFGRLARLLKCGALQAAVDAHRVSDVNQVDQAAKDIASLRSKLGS

T2: H. sapiens HAUS8-HIS8, N-clamp fragment (H. sapiens) (UniProt Q9BT25)
T2 sequence: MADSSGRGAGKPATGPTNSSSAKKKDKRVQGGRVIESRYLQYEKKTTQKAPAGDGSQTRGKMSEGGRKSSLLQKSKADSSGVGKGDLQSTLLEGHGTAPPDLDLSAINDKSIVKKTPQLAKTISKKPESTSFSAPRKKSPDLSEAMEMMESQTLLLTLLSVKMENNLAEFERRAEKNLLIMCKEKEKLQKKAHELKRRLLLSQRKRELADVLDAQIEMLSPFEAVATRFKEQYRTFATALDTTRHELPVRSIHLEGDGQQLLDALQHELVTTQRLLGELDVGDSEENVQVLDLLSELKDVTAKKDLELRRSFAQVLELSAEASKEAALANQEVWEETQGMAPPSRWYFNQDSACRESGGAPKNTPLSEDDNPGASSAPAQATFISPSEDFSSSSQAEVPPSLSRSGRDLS

T3: D. melanogaster Msd5 (HAUS7 ortholog)-EGFP-HIS8, N-clamp fragment (D. melanogaster) (UniProt Q9W0G6)
T3 sequence: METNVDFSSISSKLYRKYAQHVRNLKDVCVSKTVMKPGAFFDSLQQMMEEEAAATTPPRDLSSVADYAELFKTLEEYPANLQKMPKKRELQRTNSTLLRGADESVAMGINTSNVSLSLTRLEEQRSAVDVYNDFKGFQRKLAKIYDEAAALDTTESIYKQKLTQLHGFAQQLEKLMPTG


Key:
Test in all cases: co-expression and co-purification (His-affinity, SEC, anion exchange), checked by mass spectrometry and negative stain EM; four subunits co-expressed in E. coli; Ni-NTA capture through HAUS7-EGFP-HIS8 and HAUS8-HIS8 from the lysate, Superose 6 SEC, Capto HiRes Q
[1] = molecular target: T1, D. melanogaster Dgt4 (HAUS8 ortholog)-HIS8, N-clamp fragment (D. melanogaster)
[2] = molecular target: H. sapiens HAUS7-EGFP-HIS8, N-clamp fragment (H. sapiens) (UniProt Q99871)
[3] = molecular target: T2, H. sapiens HAUS8-HIS8, N-clamp fragment (H. sapiens)
[4] = molecular target: T3, D. melanogaster Msd5 (HAUS7 ortholog)-EGFP-HIS8, N-clamp fragment (D. melanogaster)

binding [1] | binding [2] | binding [3] | binding [4] | Binder
binds |  |  |  | D. melanogaster Msd5 (HAUS7 ortholog)-EGFP-HIS8, N-clamp fragment (domain or fragment, UniProt Q9W0G6 1-179) METNVDFSSISSKLYRKYAQHVRNLKDVCVSKTVMKPGAFFDSLQQMMEEEAAATTPPRDLSSVADYAELFKTLEEYPANLQKMPKKRELQRTNSTLLRGADESVAMGINTSNVSLSLTRLEEQRSAVDVYNDFKGFQRKLAKIYDEAAALDTTESIYKQKLTQLHGFAQQLEKLMPTG
 | binds | binds |  | H. sapiens HAUS2, N-clamp fragment (domain or fragment, UniProt Q9NVX0 1-235) MAAANPWDPASAPNGAGLVLGHFIASGMVNQEMLNMSKKTVSCFVNFTRLQQITNIQAEIYQKNLEIELLKLEKDTADVVHPFFLAQKCHTLQSMNNHLEAVLKEKRSLRQRLLKPMCQENLPIEAVYHRYMVHLLELAVTFIERLETHLETIRNIPHLAANLKKMNQALAKMDILVTETEELAENILKWRKQQNEVSSCIPKILAEESYLYKHDIIMPPLPFTSKVHVQTINAK
binds |  |  | binds | D. melanogaster Dgt6 (HAUS6 ortholog), N-clamp fragment with the CH domain (domain or fragment, UniProt Q9VAP2 1-280) MDRTIIAPWKAEEKEQSEKLHRKLQGLALVHPLPDELRKLIAWDMFLKPNQVAFVHVMHYLFRLLDPAEFKRRFFWPITDKKSEANFRSSTVEYLKHLNEKHQLHWANIKSYLVVMPGGMRFINFLLEFVGFVIQELIKQREKSLGLEAGTPNVSAKVMARQNAVMKEYASSYVVNLEENTALLRDKTQKIRRLMADLSADMGVPEEQLADDGFLDEFEATAALGVERVITQPTERKFDLEASLCGLKEAIDLFQVKQAENNQSKEAVEKALRGMRVLFD
 | binds | binds |  | H. sapiens HAUS6, N-clamp fragment (domain or fragment, UniProt Q7Z4H7 1-432) MSSASVTAFEKEHLWMYLQALGFEPGPATIACGKIVSHTHLGVNMFDKLNRDAFHIISYFLFQVLDQSLTKEVFKFCWPPFDQKSDTEFRKHCCEWIKRISGECGSSFPQVVGSLFLSPGGPKFIHLMYHFARFVAMKYIKSNSKNSSHHFVETFNIKPQDLHKCIARCHFARSRFLQILQRQDCVTQKYQENAQLSVKQVRNLRSECIGLENQIKKMEPYDDHSNMEEKIQKVRSLWASVNETLMFLEKEREVVSSVLSLVNQYALDGTNVAINIPRLLLDKIEKQMFQLHIGNVYEAGKLNLLTVIQLLNEVLKVMKYERCQADQARLTVDLHYLEKETKFQKERLSDLKHMRYRIKDDLTTIRHSVVEKQGEWHKKWKEFLGLSPFSLIKGWTPSVDLLPPMSPLSFDPASEEVYAKSILCQYPASLPD
